Test results: PubChem BioAssay AID493014 (National Center for Advancing Translational Sciences (NCATS), 2011)
Hit rate of the full screen: of about 340,000 compounds, about 170 (0.05%) were called active. The inconclusive results got no clear call from the source; some entries with a clear call stand among them for comparison. The call rests on the fitted dose curve; in most records, active means well fitted inhibition curve with a large enough effect in the signal ratio, with a control signal flat (not every such curve was filed as active); inconclusive means small, poorly fitted or top-dose-only effect, or effect the other way, or a change in a side signal; inactive means flat fitted curve, though single readings scatter; the % refers to the signal ratio. Where the call is inconclusive, the potency comes from a doubtful curve fit.

Assay: qHTS Assay to Find Inhibitors of Chronic Active B-Cell Receptor Signaling;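 on activity change, negative = inhibition: plate controls were basal doxycycline-induced cells for no effect and cells given 10 µM MG132 for full effect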
Conditions: ABC-DLBCL IkBa-CBG/CBR reporter, luminescence ratio (green luciferase fused to IkBa over red control in TMD8 lymphoma cells), 4 h; activity change, negative = inhibition: at 46.1 µM (top of the series)
Summary of the method: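 TMD8 human ABC-DLBCL cells with doxycycline-inducible IκBα–green luciferase fusion and unfused red luciferase, in 0.5% FBS medium; compounds up to 46 uM, 4 h at 37C. Green/red luminescence ratio, filter-overlap corrected, fitted to concentration-response curves.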
Potency means the concentration at half of the fitted maximal effect.

Row | Structure (SMILES) | activity change, negative = inhibition | Potency
1 | CCOC(=O)Cn1nc(C)c(NC(=O)c2ccc(Cl)c([N+](=O)[O-])c2)c1C | inactive | 
2 | CCN(CC(=O)Nc1ccc(OC)cc1)C(=O)CCc1nc2ccccc2c(=O)[nH]1 | inactive | 
3 | CC1Cc2ccccc2N1C(=O)c1cnsn1 (stereo unspecified) |  | inconclusive: 20.6 µM [falling, single point]
4 | CCOC(=O)N1CCC2(CC1)C(C#N)=C(N)Oc1n[nH]c(C)c12 | inconclusive: 4.04% | 
5 | CCOC(=O)N1CCC(NC(=O)c2cc(C(=O)NCc3ccc(F)cc3)ccc2CO)CC1 | inactive | 
6 | CN(C)S(=O)(=O)c1ccc(C(=O)Nc2ccn(C)n2)cc1 | inactive | 
7 | O=C(Nc1cccc(-c2nc3cc(Cl)ccc3o2)c1)C1CCCO1 (stereo unspecified) |  | inconclusive: 3.26 µM [rising, partial curve, poor fit]
8 | COC(=O)c1c(C)[nH]c(C(=O)OCc2ccc(F)cc2)c1C | inactive | 
9 | O=C(O)Cn1nc2ccccc2n1 | inconclusive: 2.06% | 
10 | Cc1ccc(-c2noc(CCCC(=O)NC3CCCCC3)n2)cc1 |  | inconclusive: 6.31 µM [rising, partial curve]
11 | Cc1nn(CCC(=O)NNC(=S)Nc2ccc(F)cc2)c(C)c1Br | inconclusive: -13.9% | 
12 | Cc1ccc(OCc2nc3c4c(ncn3n2)-c2ccccc2CC42CCCC2)cc1 | inactive | 
13 | COCCNC(=O)c1cc(-c2cccc(OC)c2)on1 |  | inconclusive: 25.1 µM [falling, single point]
14 | CN(C)CCNC(=O)/C=C/c1cn(-c2ccccc2)nc1-c1cc2ccccc2oc1=O | inconclusive: -12.4% | 
15 | CC1(C)NC(=O)N(CCCC(=O)Nc2ccc(C(F)(F)F)cc2)C1=O | inactive | 
16 | C/C(=N\NC(N)=S)C1(C)CC2(CC(C)(C)OC2=O)C(=O)O1 (stereo unspecified) | inconclusive: 0.185% | 
17 | CCc1cccc(OCCn2nc(C(=O)O)c3ccccc3c2=O)c1 | inconclusive: -2.18% | 
18 | CN(c1ccc(C(=O)Nc2ccc(Cl)cn2)cc1)S(=O)(=O)c1ccccc1 | inconclusive: 1.03% | 
19 | CCOC(=O)C1CCCN(C(=O)c2cc3ccccc3oc2=O)C1 (stereo unspecified) | inactive | 
20 | COCCn1nnnc1C(c1ccc(OC)cc1)N1CCC(C)CC1 (stereo unspecified) | inactive | 
21 | COc1ccc(/C=C/c2cc(C(F)(F)F)on2)cc1 | inconclusive: 20.7% | 
22 | Nc1nonc1C(=O)NCCN=Cc1ccccc1O | inconclusive: -198% | 

Row | Structure (SMILES) | activity change, negative = inhibition | Potency
23 | CCOC(=O)CC(=O)N/N=C/c1c(N)n(C)c(=O)n(C)c1=O | inconclusive: 8.15% | 
24 | NNC(=O)c1ccc(OCC2CC(c3ccc(Cl)cc3)=NO2)cc1 (stereo unspecified) | inconclusive: 5.75% | 
25 | O=C(N/N=C/c1cc(Br)c(Br)o1)c1ccc2c(c1)OCCO2 | inconclusive: 5.95% | 
26 | COc1ccc(-n2cc(CNCC3CC(=O)N(C4CC4)C3)c(-c3ccccc3Cl)n2)cc1 (stereo unspecified) | inconclusive: 1.96% | 
27 | COc1ccc(OC)c(-n2c(-c3cccc(O)c3)n[nH]c2=S)c1 | inconclusive: 0.698% | 
28 | O=C(C1CCCO1)N1CCN(c2c3c(nc4cc(-c5ccc(F)cc5)nn24)CCC3)CC1 (stereo unspecified) | inactive | 
29 | CC(=O)Nc1ccc(S(=O)(=O)n2cnc3cc(C)c(C)cc32)cc1 | inactive | 
30 | Cc1ccc2sc(NNC(=O)c3cc(-c4cccs4)nc4ccccc34)nc2c1C | inactive | 
31 | CN(C(=O)COc1ccc(Cl)cc1Cl)C1(C)CCS(=O)(=O)C1 (stereo unspecified) | inactive | 
32 | CN1CCN(C(=O)c2cc(-c3ccco3)on2)CC1 | inconclusive: 20.2% | 
33 | O=C(NCc1ccco1)C1CCN(C(=O)c2cc3sccc3n2Cc2ccc(Cl)cc2)CC1 | inconclusive: 1.86% | 
34 | Cn1c(=O)cc(SCC(=O)Nc2ccc3c(c2)OCO3)c2ccccc21 | inconclusive: -2.58% | 
35 | CCOC(=O)C1(Cc2ccccc2)CCN(Cc2cn(CC(=O)OC)c3ccccc23)CC1 | inconclusive: -0.959% | 
36 | CSCc1nc2scc(-c3ccccc3)c2c(=O)[nH]1 | inconclusive: 6.14% | 
37 | O=C(COc1ccc(Cl)cc1Cl)NN1C(=O)/C(=C\c2ccc(Cl)cc2)SC1=S | inconclusive: 13.1% | 
38 | O=[N+]([O-])c1ccc(O)c(/C=N/n2cnc3ccccc32)c1 | inconclusive: 1.9% | 
39 | CCOc1c(Br)cc(CNc2ccc3c(c2)OCCO3)cc1OC |  | inconclusive: 9.2 µM [falling, partial curve]
40 | CC(=O)Nc1ccc2c(c1)nc(CN1CCCC1)n2C | inactive | 
41 | CC1CCN(CC(=O)Nc2ccccc2Sc2ccccc2)CC1 | inconclusive: 8.62% | 
42 | COc1cccc(NC(=O)NCc2c(-c3ccccc3)noc2C)c1 |  | inconclusive: 11.2 µM [falling, partial curve, poor fit]
43 | COc1ccc(N2C(=O)C(Cl)=C(Nc3ccccc3O)C2=O)cc1 |  | inconclusive: 23.1 µM [falling, partial curve]
44 | O=C(NCc1ccc(N2CCCC2=O)cc1)c1ccc(F)cc1 | inconclusive: 1.02% | 

A different layout for 2 compounds above.
O=C(C1CCCO1)N1CCN(c2c3c(nc4cc(-c5ccc(F)cc5)nn24)CCC3)CC1 (stereo unspecified)
  activity change, negative = inhibition: inactive
CSCc1nc2scc(-c3ccccc3)c2c(=O)[nH]1
  activity change, negative = inhibition: inconclusive: 6.14%

Among those listed so far, two have a nitro group on carbon.
Row | Structure (SMILES) | activity change, negative = inhibition | Potency
1 | CCOC(=O)Cn1nc(C)c(NC(=O)c2ccc(Cl)c([N+](=O)[O-])c2)c1C | inactive | 
38 | O=[N+]([O-])c1ccc(O)c(/C=N/n2cnc3ccccc32)c1 | inconclusive: 1.9% | 

Later entries:

Row | Structure (SMILES) | activity change, negative = inhibition | Potency
45 | COc1cc2nc(-c3ccc(Br)o3)oc(=O)c2cc1OC | inconclusive: 1.73% | 
46 | CN(CC(=O)Nc1sccc1C(N)=O)S(=O)(=O)c1ccc(Cl)cc1 | inconclusive: 2.64% | 
47 | Cc1cc(C)n(-c2ccc(-n3ccnc3)nn2)n1 | inconclusive: 4.07% | 
48 | C=CCNc1oc(Cc2cccc3ccccc23)nc1C#N | inactive | 
49 | CCc1ccc([C@@H]2CC=C(C(=O)O)[C@H](c3ccccc3)N2S(=O)(=O)c2ccc(C)cc2)cc1 | inconclusive: 0.849% | 
50 | COc1ccc(C(=O)N/N=C/c2c(C)[nH]c(=O)[nH]c2=O)cc1 | inconclusive: -15.8% | 
51 | Cc1c(NC(=O)c2cccs2)cccc1-c1nc2ccccc2s1 |  | inconclusive: 16.4 µM [rising, partial curve, poor fit]
52 | N#CC(C#N)=C1C(=O)N(CCN2CCCCC2)c2ccccc21 | inconclusive: -4.14% | 
53 | Cc1ccc(Cl)cc1NC(=O)c1cc2ccccc2cc1O |  | inconclusive: 8.91 µM [falling, partial curve, poor fit]
54 | COC(=O)c1cc(C(=O)Nn2cnnc2)cc([N+](=O)[O-])c1 | inactive | 
55 | COC(=O)c1cccc(NC(=O)CN2CCN(Cc3ccccc3)CC2)c1 |  | inconclusive: 5.8 µM [falling, full curve]
56 | Cc1[nH]nc(C(F)(F)F)c1CCC(=O)NC1CCCCCC1 | inconclusive: 0.348% | 
57 | O=C(CSc1n[nH]c(-c2ccc(Br)cc2)n1)NC1CCCC1 | inconclusive: 1.75% | 
58 | O=C(C[C@H]1C/C=C\CC[C@@H](Cc2ccc(F)cc2)C(=O)O[C@@H](c2ccccc2)CNC1=O)N[C@H](CO)Cc1ccccc1 | inactive | 
59 | Cc1cc(OCC(=O)NC(C)C)cc(C)c1Cl | inconclusive: 11.8% | 
60 | O=C(CSc1nnc(-c2ccccc2)c(-c2ccccc2)n1)N1CCOCC1 | inconclusive: 4.15% | 
61 | CN(CC(=O)Nc1ccc(F)cc1)C(=O)COC(=O)Cc1c(F)cccc1Cl | inactive | 
62 | CC1CCN(C(=O)Cn2nnc(-c3ccc(N)cc3)n2)CC1 | inactive | 
63 | CCn1nc(C)c(NS(=O)(=O)c2ccc(C)cc2)c1C | inconclusive: 8.66% | 
64 | CC(=O)c1ccc(N2CCN(C(=O)c3cc(-c4ccncc4)nc4ccc(Br)cc34)CC2)cc1 | inconclusive: 4.26% | 
65 | O=C(Nc1ccccc1)C1CCCN1S(=O)(=O)c1cccs1 (stereo unspecified) |  | inconclusive: 14.6 µM [falling, partial curve, poor fit]
66 | CCc1c(C)sc(NC(=O)c2ccc(Br)o2)c1C(=O)OC | inconclusive: 11.6% | 

Row | Structure (SMILES) | activity change, negative = inhibition | Potency
67 | CCCNC(=O)c1ccc(N(Cc2ccccc2)S(C)(=O)=O)cc1 | inconclusive: 4.3% | 
68 | O=C(Nc1nnc(-c2ccc(Cl)cc2)o1)c1cccc(N2C(=O)CCC2=O)c1 | inconclusive: -20.1% | 
69 | O=C(O)CC(CC(=O)Nc1ccc(-n2ccc(C(F)(F)F)n2)cc1)c1ccccc1 (stereo unspecified) | inconclusive: 0.79% | 
70 | O=C1c2cccc3cccc(c23)C(=O)N1CC1CCN(CC(O)COCc2ccc3c(c2)OCO3)CC1 (stereo unspecified) | inactive | 
71 | CC(=O)c1ccc(N(C)C)cc1 | inactive | 
72 | CCN(CC)P(=O)(Nc1ccccc1Br)c1ccc(N(C)C)cc1NC(=O)c1ccco1 (stereo unspecified) | inactive | 
73 | Cc1ccc(S(=O)(=O)C(CNS(=O)(=O)c2cc(F)ccc2F)c2cccs2)cc1 (stereo unspecified) | inconclusive: 7.95% | 
74 | Cc1cc(C)n(-c2nnc(C)n2/N=C/c2ccco2)n1 | inactive | 
75 | Cc1cc(C(=O)Nc2sc3c(c2C#N)CCC(C)C3)cs1 (stereo unspecified) | inconclusive: 19.8% | 
76 | Cc1n[nH]c(=O)c2c(NC(=O)CSc3nc4ccccc4c(=O)n3-c3ccc(OC(F)F)cc3)oc(C)c12 |  | inconclusive: 23.1 µM [falling, partial curve]
77 | CC(=O)Nc1cc(NC(C)=O)cc(C(=O)N2CCCC3CCCCC32)c1 (stereo unspecified) | inconclusive: -0.633% | 
78 | CCN(CC)CCNC(=O)c1ccc(NC(=O)C2CCN(c3ncnc4sc(C)c(C)c34)CC2)cc1 | inactive | 
79 | COc1ccc(Cl)cc1NC(=O)CSc1nnc(CNC(=O)c2ccco2)o1 | inconclusive: 18.8% | 
80 | NNC(=O)c1ccc(Cl)cc1Cl |  | inconclusive: 18.4 µM [falling, single point]
81 | O=C(CN(C(=O)CCC(=O)Nc1ccccn1)C1CCCC1)NCc1ccccc1 | inactive | 
82 | Cc1nn(-c2ccccc2)c(C)c1/C=C/C(=O)OCC(=O)Nc1ccc(C(N)=O)cc1 | inactive | 
83 | CN1[C@@H]2CC(OC(=O)[C@H](CO)c3ccccc3)C[C@H]1[C@@H]1O[C@@H]12 (stereo partly specified) | inactive | 
84 | Cn1c(=O)[nH]c(=O)c2c1nc(NC1CCCCC1)n2CCO | inconclusive: 1.3% | 
85 | Cc1cccc(N(Cc2ccccc2)C(=O)CN2C(=O)NC3(CCCC3)C2=O)c1 | inactive | 
86 | CC(=O)N(/C=C1\SC(=S)N(c2ccccc2)C1=O)c1ccccc1 | inactive | 
